Here are results for one substance from doi:10.1101/2021.07.30.454416.

Protein sequences, listed by entry. Tags and fused reporters are not part of them.
UniProt P26527: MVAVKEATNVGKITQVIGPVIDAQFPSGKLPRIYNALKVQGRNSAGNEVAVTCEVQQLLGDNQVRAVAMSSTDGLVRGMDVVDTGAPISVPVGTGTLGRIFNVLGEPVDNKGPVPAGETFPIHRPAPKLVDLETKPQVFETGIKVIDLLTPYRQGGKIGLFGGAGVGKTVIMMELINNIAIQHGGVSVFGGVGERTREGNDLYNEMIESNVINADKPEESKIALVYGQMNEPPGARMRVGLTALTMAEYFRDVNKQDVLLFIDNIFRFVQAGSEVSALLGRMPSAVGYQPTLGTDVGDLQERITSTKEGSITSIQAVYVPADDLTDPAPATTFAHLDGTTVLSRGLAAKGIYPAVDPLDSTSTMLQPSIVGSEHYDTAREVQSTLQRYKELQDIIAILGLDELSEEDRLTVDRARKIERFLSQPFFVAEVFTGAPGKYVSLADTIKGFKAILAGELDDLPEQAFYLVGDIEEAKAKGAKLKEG

Results are given in words; binding and its absence hold for the method and conditions named. Binding seen in cells or lysates may run through a third protein. Some results given as binding are weak or reduced against the parent protein; the word gives no strength.

The experiment has as its target AtpB-3xFLAG (Synechocystis sp. PCC 6803) (UniProt P26527). The experiment in a line: co-IP.

For the substance “AtpB (subunit beta of ATP synthase) (from UniProt P26527 1-483)”, the binding entry is recorded as “binds”.
